# Results: publication PMC11706607
# Protein sequences, listed by entry. Tags and fused reporters are not part of them.
# UniProt Q9H1Y0: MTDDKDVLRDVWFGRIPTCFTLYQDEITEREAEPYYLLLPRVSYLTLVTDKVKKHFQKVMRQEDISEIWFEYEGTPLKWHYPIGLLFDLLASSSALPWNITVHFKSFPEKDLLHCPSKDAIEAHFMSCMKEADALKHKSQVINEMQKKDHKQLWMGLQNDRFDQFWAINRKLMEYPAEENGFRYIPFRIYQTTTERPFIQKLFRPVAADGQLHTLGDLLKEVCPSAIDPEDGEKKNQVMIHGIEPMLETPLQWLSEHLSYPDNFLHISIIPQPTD
# UniProt Q92609: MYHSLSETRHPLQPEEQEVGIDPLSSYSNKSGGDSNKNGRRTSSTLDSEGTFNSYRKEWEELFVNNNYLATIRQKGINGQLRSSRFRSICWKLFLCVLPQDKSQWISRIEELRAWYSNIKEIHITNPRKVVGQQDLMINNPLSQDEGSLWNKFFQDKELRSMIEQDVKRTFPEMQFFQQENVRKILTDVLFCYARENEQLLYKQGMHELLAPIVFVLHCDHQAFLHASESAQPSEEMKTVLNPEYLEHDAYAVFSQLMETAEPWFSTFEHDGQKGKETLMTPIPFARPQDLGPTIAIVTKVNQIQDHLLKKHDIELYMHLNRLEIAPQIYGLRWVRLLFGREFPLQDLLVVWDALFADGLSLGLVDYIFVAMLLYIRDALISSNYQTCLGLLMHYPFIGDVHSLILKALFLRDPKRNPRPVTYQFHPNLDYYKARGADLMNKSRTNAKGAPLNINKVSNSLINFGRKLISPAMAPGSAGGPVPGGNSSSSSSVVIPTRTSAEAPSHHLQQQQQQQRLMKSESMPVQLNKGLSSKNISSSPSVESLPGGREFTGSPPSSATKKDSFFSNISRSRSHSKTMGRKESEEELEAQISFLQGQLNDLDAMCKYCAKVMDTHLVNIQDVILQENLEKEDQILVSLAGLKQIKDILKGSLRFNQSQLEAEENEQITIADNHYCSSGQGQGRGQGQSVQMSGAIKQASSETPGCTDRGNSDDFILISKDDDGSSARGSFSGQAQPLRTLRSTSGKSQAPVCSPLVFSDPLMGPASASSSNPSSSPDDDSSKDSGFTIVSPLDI
# These are yes or no findings as the source states them, for the method shown. In cells and extracts the contact can be indirect. Some results given as binding are weak or reduced against the parent protein; the word gives no strength.
# Legend:
# [1] = molecular target: GFP-LC3 (UniProt Q9H492); experiment: co-IP; co-IP with GFP-LC3 in Huh7 cells treated with or without Monensin (100 µM), LLOMe (100 µM) and Bafilomycin A1 (100 nM) for 45 min
# [2] = molecular target: endogenous ATG5 (human (endogenous in HeLa)) (UniProt Q9H1Y0); experiment: co-IP; endogenous ATG5 and endogenous retromer subunits, HeLa cells with or without 2 mM LLOMe for 30 min; NP-40 buffer, Dynabeads, immunoblot
binding [1],binding [2],Substance
binds,,TBC1D5 (from UniProt Q92609 1-795)
,binds,VPS26A (from UniProt O75436 1-327)
